Results taken from the supplement of paper PMC10849652.
The list shows a part of the results.

Amino acid sequences for entries named in this document (tags omitted). A change or cut given only in a name is not applied to a line headed by its entry.
UniProt O00391: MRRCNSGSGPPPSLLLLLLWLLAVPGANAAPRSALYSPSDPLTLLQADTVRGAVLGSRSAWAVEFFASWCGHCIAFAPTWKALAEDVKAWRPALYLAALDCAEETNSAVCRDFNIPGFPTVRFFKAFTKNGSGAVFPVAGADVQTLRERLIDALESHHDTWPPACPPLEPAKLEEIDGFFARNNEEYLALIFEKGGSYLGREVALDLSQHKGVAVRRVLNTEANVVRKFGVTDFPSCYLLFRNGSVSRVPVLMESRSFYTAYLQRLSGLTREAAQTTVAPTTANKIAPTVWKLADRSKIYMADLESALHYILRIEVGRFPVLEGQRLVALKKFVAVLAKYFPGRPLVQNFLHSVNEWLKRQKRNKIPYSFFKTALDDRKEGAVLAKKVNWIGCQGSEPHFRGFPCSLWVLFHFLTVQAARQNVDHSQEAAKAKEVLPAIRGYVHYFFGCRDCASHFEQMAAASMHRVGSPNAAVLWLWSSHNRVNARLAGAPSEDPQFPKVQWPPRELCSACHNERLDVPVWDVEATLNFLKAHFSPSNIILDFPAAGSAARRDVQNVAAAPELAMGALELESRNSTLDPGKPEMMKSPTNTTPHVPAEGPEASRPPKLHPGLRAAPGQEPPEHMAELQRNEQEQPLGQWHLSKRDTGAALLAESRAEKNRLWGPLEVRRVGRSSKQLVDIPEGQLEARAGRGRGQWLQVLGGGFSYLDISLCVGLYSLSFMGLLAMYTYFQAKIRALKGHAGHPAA
UniProt Q2PPJ7: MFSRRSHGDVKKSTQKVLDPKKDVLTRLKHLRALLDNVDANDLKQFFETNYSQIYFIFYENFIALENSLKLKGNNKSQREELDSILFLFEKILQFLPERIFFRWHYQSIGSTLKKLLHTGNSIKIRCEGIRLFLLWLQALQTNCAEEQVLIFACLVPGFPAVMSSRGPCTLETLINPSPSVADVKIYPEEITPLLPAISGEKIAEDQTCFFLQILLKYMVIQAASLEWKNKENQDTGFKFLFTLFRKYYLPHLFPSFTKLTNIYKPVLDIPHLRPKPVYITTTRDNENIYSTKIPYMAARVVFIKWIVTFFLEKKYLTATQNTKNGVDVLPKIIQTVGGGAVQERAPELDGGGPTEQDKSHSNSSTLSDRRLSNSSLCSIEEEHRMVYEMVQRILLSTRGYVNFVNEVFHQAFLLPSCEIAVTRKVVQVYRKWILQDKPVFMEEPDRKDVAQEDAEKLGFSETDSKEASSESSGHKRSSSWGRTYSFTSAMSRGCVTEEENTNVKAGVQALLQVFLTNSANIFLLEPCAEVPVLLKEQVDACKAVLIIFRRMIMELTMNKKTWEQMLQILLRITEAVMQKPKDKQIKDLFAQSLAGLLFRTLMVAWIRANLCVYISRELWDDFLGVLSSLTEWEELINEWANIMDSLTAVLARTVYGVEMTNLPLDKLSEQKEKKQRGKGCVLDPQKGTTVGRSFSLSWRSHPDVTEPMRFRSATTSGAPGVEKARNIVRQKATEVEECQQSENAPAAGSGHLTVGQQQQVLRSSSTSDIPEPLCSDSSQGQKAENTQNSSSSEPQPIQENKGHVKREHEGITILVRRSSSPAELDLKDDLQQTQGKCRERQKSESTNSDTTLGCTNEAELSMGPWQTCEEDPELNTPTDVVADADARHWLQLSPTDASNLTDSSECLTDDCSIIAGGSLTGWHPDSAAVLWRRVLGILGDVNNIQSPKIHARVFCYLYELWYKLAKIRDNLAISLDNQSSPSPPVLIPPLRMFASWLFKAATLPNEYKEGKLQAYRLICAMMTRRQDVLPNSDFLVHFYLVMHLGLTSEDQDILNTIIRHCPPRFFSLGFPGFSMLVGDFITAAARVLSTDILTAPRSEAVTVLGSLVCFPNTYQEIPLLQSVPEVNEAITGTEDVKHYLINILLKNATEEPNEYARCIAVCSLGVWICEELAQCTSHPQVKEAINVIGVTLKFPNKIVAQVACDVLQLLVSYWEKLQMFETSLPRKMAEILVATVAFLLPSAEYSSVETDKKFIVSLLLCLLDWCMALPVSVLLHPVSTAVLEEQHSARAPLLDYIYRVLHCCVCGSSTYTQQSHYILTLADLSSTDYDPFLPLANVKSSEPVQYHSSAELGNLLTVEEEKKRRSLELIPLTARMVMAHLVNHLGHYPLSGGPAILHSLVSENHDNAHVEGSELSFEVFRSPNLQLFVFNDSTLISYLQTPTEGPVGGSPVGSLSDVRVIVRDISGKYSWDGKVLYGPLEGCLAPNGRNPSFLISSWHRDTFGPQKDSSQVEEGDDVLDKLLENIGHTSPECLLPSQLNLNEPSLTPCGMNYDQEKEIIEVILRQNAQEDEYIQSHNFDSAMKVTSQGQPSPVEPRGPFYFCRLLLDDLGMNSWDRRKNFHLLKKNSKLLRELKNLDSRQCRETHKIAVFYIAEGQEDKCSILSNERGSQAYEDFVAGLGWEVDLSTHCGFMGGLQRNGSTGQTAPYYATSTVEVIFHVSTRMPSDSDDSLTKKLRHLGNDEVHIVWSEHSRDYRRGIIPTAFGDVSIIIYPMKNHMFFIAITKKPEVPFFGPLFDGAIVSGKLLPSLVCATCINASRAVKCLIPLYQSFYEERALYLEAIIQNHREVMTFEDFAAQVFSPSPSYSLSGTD
UniProt O75154: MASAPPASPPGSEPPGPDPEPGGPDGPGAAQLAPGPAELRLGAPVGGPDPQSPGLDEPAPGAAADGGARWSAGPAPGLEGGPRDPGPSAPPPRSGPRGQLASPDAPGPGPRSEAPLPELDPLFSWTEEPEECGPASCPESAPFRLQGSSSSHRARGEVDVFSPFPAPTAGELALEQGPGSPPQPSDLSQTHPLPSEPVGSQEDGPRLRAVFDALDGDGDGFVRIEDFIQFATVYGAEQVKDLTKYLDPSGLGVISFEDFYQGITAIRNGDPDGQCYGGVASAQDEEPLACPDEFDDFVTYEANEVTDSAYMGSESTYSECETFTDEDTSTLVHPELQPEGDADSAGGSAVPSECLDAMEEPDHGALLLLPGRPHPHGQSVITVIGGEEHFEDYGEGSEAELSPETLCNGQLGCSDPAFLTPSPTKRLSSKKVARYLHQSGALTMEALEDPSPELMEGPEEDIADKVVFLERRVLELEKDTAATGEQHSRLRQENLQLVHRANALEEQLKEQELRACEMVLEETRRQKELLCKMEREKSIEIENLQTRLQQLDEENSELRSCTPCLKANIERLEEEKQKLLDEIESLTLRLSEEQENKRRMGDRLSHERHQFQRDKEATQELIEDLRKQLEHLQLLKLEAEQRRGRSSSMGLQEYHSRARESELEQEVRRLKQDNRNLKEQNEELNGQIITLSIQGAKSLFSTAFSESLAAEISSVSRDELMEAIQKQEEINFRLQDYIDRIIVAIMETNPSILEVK
UniProt Q9ULZ3, whole entry, looked up: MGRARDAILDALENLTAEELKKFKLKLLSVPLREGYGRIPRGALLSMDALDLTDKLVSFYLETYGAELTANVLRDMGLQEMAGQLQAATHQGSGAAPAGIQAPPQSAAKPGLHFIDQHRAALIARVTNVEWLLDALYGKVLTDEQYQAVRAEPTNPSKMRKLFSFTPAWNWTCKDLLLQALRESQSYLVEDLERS
UniProt Q86YS6: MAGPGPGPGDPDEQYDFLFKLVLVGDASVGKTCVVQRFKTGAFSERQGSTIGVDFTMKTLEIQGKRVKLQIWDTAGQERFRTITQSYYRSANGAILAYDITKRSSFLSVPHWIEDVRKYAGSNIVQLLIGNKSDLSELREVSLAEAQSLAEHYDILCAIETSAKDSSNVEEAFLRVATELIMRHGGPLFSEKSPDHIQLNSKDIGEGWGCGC
UniProt O00194: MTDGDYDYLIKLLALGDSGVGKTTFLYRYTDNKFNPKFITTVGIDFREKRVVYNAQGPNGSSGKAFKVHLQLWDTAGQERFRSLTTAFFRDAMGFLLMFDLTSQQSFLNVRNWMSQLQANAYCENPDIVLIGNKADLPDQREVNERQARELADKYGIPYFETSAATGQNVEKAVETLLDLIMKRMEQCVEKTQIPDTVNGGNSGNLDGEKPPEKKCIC
UniProt Q96D70: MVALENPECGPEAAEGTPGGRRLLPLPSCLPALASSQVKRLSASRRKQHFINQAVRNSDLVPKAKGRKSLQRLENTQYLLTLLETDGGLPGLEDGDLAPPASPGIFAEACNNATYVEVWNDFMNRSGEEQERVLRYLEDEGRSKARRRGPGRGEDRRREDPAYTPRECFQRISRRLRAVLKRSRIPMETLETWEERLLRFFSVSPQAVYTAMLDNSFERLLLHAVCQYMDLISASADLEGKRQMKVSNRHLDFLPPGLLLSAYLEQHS
UniProt Q9BRQ0: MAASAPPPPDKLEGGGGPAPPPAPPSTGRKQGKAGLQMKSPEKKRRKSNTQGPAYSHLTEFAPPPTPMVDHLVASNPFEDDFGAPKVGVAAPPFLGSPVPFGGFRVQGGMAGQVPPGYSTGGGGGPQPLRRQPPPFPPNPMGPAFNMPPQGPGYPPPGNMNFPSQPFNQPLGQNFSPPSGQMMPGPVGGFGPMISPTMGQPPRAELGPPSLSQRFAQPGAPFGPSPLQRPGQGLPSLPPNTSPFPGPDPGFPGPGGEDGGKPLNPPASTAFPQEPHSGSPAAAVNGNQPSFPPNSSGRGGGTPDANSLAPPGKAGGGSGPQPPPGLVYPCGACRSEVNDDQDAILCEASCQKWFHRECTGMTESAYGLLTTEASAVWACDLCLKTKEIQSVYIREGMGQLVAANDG

Legend:
Experiment in all cases: log2 fold change, soluble protein after heating vs DMSO (PISA); higher = thermal stabilisation; K562 lysate, 10 uM; active = over 0.2 and 3.5 SD of the protein, either way, in both replicates (recomputed)
[1] = compound: C#Cc1cccc(Nc2ncnc3cc(OCCOC)c(OCCOC)cc23)c1 [erlotinib]
How it was run: (§1)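 Following dounce homogenisation of K562 pellets in PBS pH 7.4 with 1 mM MgCl2, crude extract at 1 mg/mL protein was incubated for 30 min with 10 μM compound. Aliquots were then heated for 3 min over 48°C-58°C and pooled, NP-40 was added to 0.5% at 4°C, and soluble protein was recovered as the supernatant at 21,000xg for 90 min. Channel-sum-equalised TMTpro 16plex LC-MS/MS quantified this protein. Each value, from duplicates, is a log-two fold change in thermal stability relative to solvent controls.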

[2] = compound: C/C(=N\NC(=O)C1=CC(=CC=C1)S(=O)(=O)N2CCOCC2)/C3=C(C=CC(=C3)Cl)O
How it was run: as §1

[3] = compound: C1=CC(=CC=C1C2=NC3=C(N2)C=C(C=C3)C(=O)N)OC4=CC=C(C=C4)Cl
How it was run: as §1

[4] = compound: C1=CC2=C(C=CC(=C2)/C=C\3/C(=O)NC(=NCC4=CC=CS4)S3)N=C1
How it was run: as §1

[5] = compound: C1=CC=C2C(=C1)C3=NNC4=CC=CC(=C43)C2=O
How it was run: as §1

[6] = compound: C1CCN(C1)C(=O)NC2=CC=CC(=C2)NC3=NC=C(C(=N3)NCCC4=CN=CN4)Br
How it was run: as §1

[7] = compound: C1CN(CCC1(CC2=CC=C(C=C2)Cl)N)C3=NC=NC4=C3C=CN4
How it was run: as §1

[8] = compound: CC(C)C1=C2N=C(C=C(N2N=C1)NCC3=CC=CC=C3)NCCCCCCN
How it was run: as §1

[9] = compound: CC1=C(C=C(C=C1)NC(=O)C2=CC(=CC=C2)C(C)(C)C#N)NC3=CC4=C(C=C3)N=CN(C4=O)C
How it was run: as §1

[10] = compound: CC1=C(C2=C(C=C1)C(=O)C3=CC=CC=C3N2CCCN)C
How it was run: as §1

[11] = compound: CC(=O)c1cnc2ccc(-c3cc(Cl)c(O)c(Cl)c3)nc2c1N[C@H]1CC[C@H](CN(C)C)CC1
How it was run: as §1

[12] = compound: CC1=CC=C(C=C1)SC2=C3C=C(SC3=CN=C2)C(=O)N
How it was run: as §1

[13] = compound: C1=CC=C(C=C1)C2=NC(=C(N2)C3=CC=NC=C3)C4=CC(=C(C=C4)Cl)O
How it was run: as §1

[14] = compound: C1COCCN1CCN2C3=CC=CC=C3N=C2NC(=O)C4=CC(=CC=C4)[N+](=O)[O-] [IRAK-1-4 Inhibitor I]
How it was run: as §1

[15] = compound: CC(C)(C)Cn1c(N)nc2ccc(-c3[nH]c(C(C)(C)C)nc3-c3ccc(F)cc3)nc21 [ralimetinib]
How it was run: as §1

[16] = compound: CC(C)(O)CC(=O)NCCn1ccc2ncnc(Nc3ccc(Oc4cccc(C(F)(F)F)c4)c(Cl)c3)c21
How it was run: as §1

[17] = compound: CC1=C(C=C(C=C1)NC(=O)C2=CC(=CC=C2)N(C)C)NC(=O)C3=CC=C(C=C3)O
How it was run: as §1

[18] = compound: C1=CC2=NC=CN=C2C=C1/C=C/3\C(=O)NC(=O)S3
How it was run: as §1

[19] = compound: C=CC(=O)N1CCC[C@@H](n2nc(-c3ccc(Oc4ccccc4)cc3)c3c(N)ncnc32)C1 [ibrutinib]
How it was run: as §1

[20] = compound: CC1=C(C(CC(=O)N1)C2=CC=C(C=C2)C(F)(F)F)C(=O)NC3=C(C=C4C(=C3)C=NN4)F
How it was run: as §1

Measured: log2 fold change

RAC3 (UniProt P60763)
inactive: [1] -0.031 | [2] 0.135 | [3] 0.054 | [4] -0.023 | [5] 0.048 | [6] 0.082 | [7] 0 | [8] 0 | [9] 0.118

QSOX1 (UniProt O00391)
inactive: [1] -0.05 | [3] 0.002 | [6] -0.02 | [7] -0.053 | [8] 0.037 | [10] -0.068 | [9] -0.026

RALGAPA2 (UniProt Q2PPJ7)
inactive: [11] 0.123 | [9] -0.155 | [12] 0.005

Quoted at random: two entries already listed.
RAC3 (UniProt P60763)
inactive: [1] -0.031 | [2] 0.135 | [3] 0.054 | [4] -0.023 | [5] 0.048 | [6] 0.082 | [7] 0 | [8] 0 | [9] 0.118

QSOX1 (UniProt O00391)
inactive: [1] -0.05 | [3] 0.002 | [6] -0.02 | [7] -0.053 | [8] 0.037 | [10] -0.068 | [9] -0.026

(list continues)

RAB11FIP3 isoform 3 (UniProt O75154)
inactive: [1] 0.002 | [3] -0.045 | [13] 0.036 | [6] -0.038 | [7] -0.088 | [14] -0.102 | [11] -0.03 | [15] 0.021 | [16] 0.254 | [8] -0.012 | [10] -0.172 | [17] 0 | [12] -0.108

RAB11FIP5, A0A1B0GTL5
inactive: [1] 0.09 | [3] -0.084 | [11] 0.13 | [8] -0.197 | [9] -0.028 | [12] -0.077

PYCARD isoform 2 (UniProt Q9ULZ3)
inactive: [1] -0.15 | [3] -0.098 | [18] 0.089 | [13] 0.14 | [14] -0.001 | [19] -0.194 | [11] -0.167 | [15] -0.047 | [16] 0.146 | [8] 0.123 | [9] 0.057 | [17] 0.012 | [12] -0.243

QARS1, A0A0U1RR66
inactive: [11] 0.15 | [12] -0.523

RAB43 (UniProt Q86YS6)
inactive: [1] 0.088 | [3] 0.043 | [18] -0.065 | [13] -0.032 | [6] 0.009 | [7] -0.029 | [14] -0.062 | [19] -0.006 | [15] 0.013 | [16] 0.026 | [8] 0.081 | [20] 0.038 | [10] -0.144 | [17] 0.058

RAB27B (UniProt O00194)
inactive: [1] 0.016 | [2] 0.19 | [3] -0.032 | [4] -0.195 | [5] -0.101 | [6] -0.149 | [7] 0.09 | [11] -0.103 | [8] -0.056 | [20] 0.049 | [10] -0.026 | [12] -0.009

R3HDM4 (UniProt Q96D70)
inactive: [1] 0.059 | [2] 0.034 | [3] -0.025 | [4] 0.248 | [13] 0.023 | [5] -0.073 | [6] 0.056 | [7] 0.164 | [14] -0.014 | [15] -0.077 | [16] -0.056 | [8] -0.022 | [20] 0.139 | [10] -0.088 | [9] 0.044 | [17] 0.029

RACK1 (UniProt D6RHH4)
inactive: [2] -0.196 | [4] 0 | [18] -0.174 | [5] 0.087 | [19] 0.017

PYGO2 (UniProt Q9BRQ0)
inactive: [1] -0.047 | [3] 0.045 | [18] -0.039 | [13] 0.115 | [6] 0.012 | [7] 0.049 | [14] 0.051 | [19] 0.064 | [15] 0.151 | [16] -0.122 | [8] -0.001 | [20] 0.005 | [10] 0.044 | [9] 0.011 | [17] -0.061
